The values that follow come from paper PMC6012506.

By UniProt entry, the sequences of proteins in these tests, tags left out.
UniProt Q92508: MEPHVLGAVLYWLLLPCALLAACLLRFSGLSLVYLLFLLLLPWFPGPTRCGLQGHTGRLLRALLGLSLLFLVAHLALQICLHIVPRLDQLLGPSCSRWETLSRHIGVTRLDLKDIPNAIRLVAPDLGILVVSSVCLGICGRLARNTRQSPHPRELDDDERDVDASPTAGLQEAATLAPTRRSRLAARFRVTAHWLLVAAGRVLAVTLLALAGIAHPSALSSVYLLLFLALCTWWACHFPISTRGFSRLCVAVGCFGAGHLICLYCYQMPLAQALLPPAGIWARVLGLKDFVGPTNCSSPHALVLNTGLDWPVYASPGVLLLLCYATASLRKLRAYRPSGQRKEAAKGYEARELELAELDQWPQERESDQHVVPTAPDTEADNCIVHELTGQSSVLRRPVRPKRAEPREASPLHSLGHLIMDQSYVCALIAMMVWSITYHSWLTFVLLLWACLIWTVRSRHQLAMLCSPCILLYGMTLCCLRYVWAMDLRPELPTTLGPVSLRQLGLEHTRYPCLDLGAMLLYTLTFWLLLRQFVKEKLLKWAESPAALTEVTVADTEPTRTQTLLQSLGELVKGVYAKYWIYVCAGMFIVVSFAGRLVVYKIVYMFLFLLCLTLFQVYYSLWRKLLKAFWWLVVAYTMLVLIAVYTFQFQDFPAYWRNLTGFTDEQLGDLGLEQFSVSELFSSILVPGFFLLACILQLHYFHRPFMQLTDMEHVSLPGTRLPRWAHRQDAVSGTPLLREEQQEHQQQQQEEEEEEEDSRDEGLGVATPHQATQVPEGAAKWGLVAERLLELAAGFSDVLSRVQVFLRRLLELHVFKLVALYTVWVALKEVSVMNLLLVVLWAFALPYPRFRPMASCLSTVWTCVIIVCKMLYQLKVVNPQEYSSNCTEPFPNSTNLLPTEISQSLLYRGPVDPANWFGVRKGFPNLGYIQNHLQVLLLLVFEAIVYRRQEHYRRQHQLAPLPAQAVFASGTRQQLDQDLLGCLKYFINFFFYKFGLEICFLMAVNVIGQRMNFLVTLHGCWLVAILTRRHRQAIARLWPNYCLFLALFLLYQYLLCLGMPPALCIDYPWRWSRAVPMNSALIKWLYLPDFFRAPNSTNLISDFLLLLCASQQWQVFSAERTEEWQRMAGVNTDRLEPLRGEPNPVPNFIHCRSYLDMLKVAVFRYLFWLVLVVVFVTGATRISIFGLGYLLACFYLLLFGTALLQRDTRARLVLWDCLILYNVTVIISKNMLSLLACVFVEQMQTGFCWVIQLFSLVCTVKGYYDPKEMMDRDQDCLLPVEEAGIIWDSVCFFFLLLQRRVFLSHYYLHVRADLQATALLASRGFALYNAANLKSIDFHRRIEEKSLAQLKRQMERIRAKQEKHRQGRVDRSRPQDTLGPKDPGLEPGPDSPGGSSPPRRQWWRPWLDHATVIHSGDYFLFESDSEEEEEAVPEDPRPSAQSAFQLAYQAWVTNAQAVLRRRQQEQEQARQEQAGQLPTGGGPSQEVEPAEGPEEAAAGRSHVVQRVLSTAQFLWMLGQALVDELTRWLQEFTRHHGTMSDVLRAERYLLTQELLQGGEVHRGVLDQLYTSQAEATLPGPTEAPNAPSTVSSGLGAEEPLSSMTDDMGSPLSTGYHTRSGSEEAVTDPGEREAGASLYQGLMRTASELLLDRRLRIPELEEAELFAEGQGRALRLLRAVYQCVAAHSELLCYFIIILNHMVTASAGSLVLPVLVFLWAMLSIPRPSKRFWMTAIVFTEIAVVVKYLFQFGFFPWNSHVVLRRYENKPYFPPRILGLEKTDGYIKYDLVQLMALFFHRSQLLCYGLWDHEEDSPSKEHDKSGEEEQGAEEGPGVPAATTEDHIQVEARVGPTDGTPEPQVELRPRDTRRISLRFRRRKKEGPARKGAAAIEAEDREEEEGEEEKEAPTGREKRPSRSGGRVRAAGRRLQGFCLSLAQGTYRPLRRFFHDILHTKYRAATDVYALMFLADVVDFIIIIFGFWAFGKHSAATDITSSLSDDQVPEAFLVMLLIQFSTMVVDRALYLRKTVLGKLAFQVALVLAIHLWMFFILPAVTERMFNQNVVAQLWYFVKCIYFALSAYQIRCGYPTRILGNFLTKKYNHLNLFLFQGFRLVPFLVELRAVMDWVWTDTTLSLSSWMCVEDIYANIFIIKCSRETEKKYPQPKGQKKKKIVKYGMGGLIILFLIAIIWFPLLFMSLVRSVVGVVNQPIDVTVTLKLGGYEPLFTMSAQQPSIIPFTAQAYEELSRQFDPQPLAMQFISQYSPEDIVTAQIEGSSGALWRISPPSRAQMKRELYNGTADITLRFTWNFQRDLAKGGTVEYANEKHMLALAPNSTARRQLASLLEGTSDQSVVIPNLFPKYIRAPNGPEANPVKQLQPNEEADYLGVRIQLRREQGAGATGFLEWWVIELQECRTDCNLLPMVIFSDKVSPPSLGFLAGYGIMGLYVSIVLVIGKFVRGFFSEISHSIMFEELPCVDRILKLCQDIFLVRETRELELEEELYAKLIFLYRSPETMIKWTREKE

For experiment [1], the target named is Piezo1, endogenous in platelets (not stated (human or mouse platelets)) (UniProt Q92508). In words: FRET or BRET; FRET/FLIM in platelets; data not shown. On the technique in general: Bioluminescence resonance energy transfer reports proximity on the nanometre scale.
The target of experiment [2] is T1, transient receptor potential C6 (TRPC6), endogenous in human platelets (human (endogenous in platelets)) (UniProt Q9Y210).
T1 sequence: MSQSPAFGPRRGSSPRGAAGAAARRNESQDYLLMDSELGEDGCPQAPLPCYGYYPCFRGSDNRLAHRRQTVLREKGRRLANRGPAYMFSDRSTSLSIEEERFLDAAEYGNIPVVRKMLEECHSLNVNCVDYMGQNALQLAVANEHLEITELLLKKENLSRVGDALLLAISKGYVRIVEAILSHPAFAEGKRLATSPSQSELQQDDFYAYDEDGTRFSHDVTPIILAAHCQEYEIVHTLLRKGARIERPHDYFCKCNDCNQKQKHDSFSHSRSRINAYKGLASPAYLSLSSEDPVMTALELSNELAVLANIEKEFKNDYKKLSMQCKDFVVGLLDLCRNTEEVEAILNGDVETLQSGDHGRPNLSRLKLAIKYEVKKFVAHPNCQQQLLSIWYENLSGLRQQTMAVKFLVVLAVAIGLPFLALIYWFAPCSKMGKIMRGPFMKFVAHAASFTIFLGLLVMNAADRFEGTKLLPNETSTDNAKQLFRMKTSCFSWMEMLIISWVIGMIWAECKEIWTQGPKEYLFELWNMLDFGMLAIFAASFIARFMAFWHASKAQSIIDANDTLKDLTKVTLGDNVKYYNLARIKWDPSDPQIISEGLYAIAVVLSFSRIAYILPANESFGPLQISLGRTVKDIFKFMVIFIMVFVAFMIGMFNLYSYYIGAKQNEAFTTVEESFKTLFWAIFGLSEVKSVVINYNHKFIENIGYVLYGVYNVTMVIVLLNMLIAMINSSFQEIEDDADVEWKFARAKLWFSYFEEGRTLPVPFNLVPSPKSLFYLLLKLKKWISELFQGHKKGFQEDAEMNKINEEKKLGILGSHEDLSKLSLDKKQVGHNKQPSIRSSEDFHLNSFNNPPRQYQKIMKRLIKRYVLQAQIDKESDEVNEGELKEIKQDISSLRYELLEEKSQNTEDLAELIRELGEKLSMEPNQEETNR
In words: FRET or BRET; FRET/FLIM on human platelets stained with antibodies; Alexa Fluor 488 lifetime, excitation 488 nm, double exponential fit; estimates interactions within <=10 nm.

Results are given in words; binding and its absence hold for the method and conditions named. In cells and extracts the contact can be indirect. Some binding calls cover weakened binding; strength is not graded here.

B1: aquaporin-1 (AQP1), endogenous in human platelets (protein, UniProt P29972 1-269)
chain: MASEFKKKLFWRAVVAEFLATTLFVFISIGSALGFKYPVGNNQTAVQDNVKVSLAFGLSIATLAQSVGHISGAHLNPAVTLGLLLSCQISIFRALMYIIAQCVGAIVATAILSGITSSLTGNSLGRNDLADGVNSGQGLGIEIIGTLQLVLCVLATTDRRRRDLGGSAPLAIGLSVALGHLLAIDYTGCGINPARSFGSAVITHNFSNHWIFWVGPFIGGALAVLIYDFILAPRSSDLTDRVKVWTSGQVEEYDLDADDINSRVEMKPK
In the case of B1, the binding entry in experiment [1] and in experiment [2] was “binds” each time.
